Results as given in US10668040B2, “Treatment of urea cycle disorders in neonates and infants” (Horizon Therapeutics, LLC, priority 2017, dated 2020).
For at least one compound, name, drawing or mass did not settle the structure.

Test system: UCD patients
Test: HPN-100-009 (Example 2): treatment-emergent, serious and non-serious adverse events
Format: in vivo, human
Details: Age 2 Months to <2 Years
Excerpt: Number of Subjects with Treatment-Emergent Adverse Events (TEAEs), Serious TEAEs, Deaths, and Discontinuations Due to TEAEs.
End point description. An adverse event (AE) was any untoward medical occurrence, whether or not the event is considered related to the study drug. […] TEAEs were defined as AEs with an onset date on or after the first dose of study medication until study discontinuation. The Investigator assessed the causal relationship of each TEAE to the study drug as not related, possibly related, or probably related. Safety population: all enrolled subjects who received any amount of study medication. End point timeframe: up to 370 days.
Adverse Events Information.
Timeframe for reporting adverse events: From first dose of study treatment up to 370 days (data cutoff); median (full range) duration of treatment was 4.68 (0.2 to 10.9) months. Adverse event reporting additional description: TEAEs (defined as AEs with an onset date on or after the first dose of study medication until study discontinuation) are presented.

## O=C(CCCc1ccccc1)OCC(COC(=O)CCCc1ccccc1)OC(=O)CCCc1ccccc1 [RAVICTI, benzenebutanoic acid, 1′,1″-(1,2,3-propanetriyl) ester]
  Non-serious AE Anaemia: Subjects Affected/Exposed: 1/10 (10%)
  Non-serious AE Apnoeic Attack: Subjects Affected/Exposed: 1/10 (10%)
  Non-serious AE Cough: Subjects Affected/Exposed: 1/10 (10%)
  Non-serious AE Deep Vein Thrombosis: Subjects Affected/Exposed: 1/10 (10%)
  Non-serious AE Diarrhoea: Subjects Affected/Exposed: 1/10 (10%)
  Non-serious AE Gross Motor Delay: Subjects Affected/Exposed: 1/10 (10%)
  Non-serious AE Hypophagia: Subjects Affected/Exposed: 1/10 (10%)
  Non-serious AE Infections (Gastroenteritis): Subjects Affected/Exposed: 1/10 (10%)
  Non-serious AE Infections (Nasopharyngitis): Subjects Affected/Exposed: 1/10 (10%)
  Non-serious AE Infections (Upper Respiratory Tract): Subjects Affected/Exposed: 3/10 (30%)
  Non-serious AE Infections (Urinary Tract): Subjects Affected/Exposed: 1/10 (10%)
  Non-serious AE Infections (Viral): Subjects Affected/Exposed: 1/10 (10%)
  Non-serious AE Metabolic Acidosis: Subjects Affected/Exposed: 1/10 (10%)
  Non-serious AE Nail Ridging: Subjects Affected/Exposed: 1/10 (10%)
  Non-serious AE Rash: Subjects Affected/Exposed: 2/10 (20%)
  Non-serious AE Rhinorrhoea: Subjects Affected/Exposed: 1/10 (10%)
  Non-serious AE Stoma Site Reaction: Subjects Affected/Exposed: 1/10 (10%)
  Non-serious AE Teething: Subjects Affected/Exposed: 1/10 (10%)
  Non-serious AE Tibia Fracture: Subjects Affected/Exposed: 1/10 (10%)
  Non-serious AE Vesicoureteric Reflux: Subjects Affected/Exposed: 1/10 (10%)
  Non-serious AE Vomiting: Subjects Affected/Exposed: 2/10 (20%)
  Non-serious adverse events: Total Subjects Affected/Exposed: 10/10 (100%)
  Serious AE Apnoeic Attack: Subjects Affected/Exposed: 1/10 (10%)
  Serious AE Hyperammonaemia: Subjects Affected/Exposed: 4/10 (40%)
  Serious AE Infections (Croup): Subjects Affected/Exposed: 1/10 (10%)
  Serious AE Infections (Gastroenteritis): Subjects Affected/Exposed: 1/10 (10%)
  Serious AE Infections (Urinary Tract): Subjects Affected/Exposed: 1/10 (10%)
  Serious AE Infections (Viral): Subjects Affected/Exposed: 1/10 (10%)
  Serious AE Pneumatosis: Subjects Affected/Exposed: 1/10 (10%)
  Serious adverse events: Total Subjects Affected/Exposed: 6/10 (60%)
